Results on 36 targets are retold here after the supplement of paper PMC7666118.

Protein sequences, listed by entry. Tags and fused reporters are not part of them. Lines headed by an entry give the natural chain unless they say otherwise; changes in a name come on top.
UniProt O43639, whole entry: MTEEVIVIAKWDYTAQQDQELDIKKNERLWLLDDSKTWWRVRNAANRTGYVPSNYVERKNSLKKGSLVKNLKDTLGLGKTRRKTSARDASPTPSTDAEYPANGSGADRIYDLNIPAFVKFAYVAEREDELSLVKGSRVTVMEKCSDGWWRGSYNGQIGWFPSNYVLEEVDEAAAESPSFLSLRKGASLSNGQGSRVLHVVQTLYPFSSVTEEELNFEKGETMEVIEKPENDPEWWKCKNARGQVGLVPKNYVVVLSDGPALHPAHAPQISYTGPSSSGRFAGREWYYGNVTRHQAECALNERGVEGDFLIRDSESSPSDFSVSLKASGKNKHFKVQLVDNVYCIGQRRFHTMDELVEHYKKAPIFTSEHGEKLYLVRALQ
UniProt Q8TEM1: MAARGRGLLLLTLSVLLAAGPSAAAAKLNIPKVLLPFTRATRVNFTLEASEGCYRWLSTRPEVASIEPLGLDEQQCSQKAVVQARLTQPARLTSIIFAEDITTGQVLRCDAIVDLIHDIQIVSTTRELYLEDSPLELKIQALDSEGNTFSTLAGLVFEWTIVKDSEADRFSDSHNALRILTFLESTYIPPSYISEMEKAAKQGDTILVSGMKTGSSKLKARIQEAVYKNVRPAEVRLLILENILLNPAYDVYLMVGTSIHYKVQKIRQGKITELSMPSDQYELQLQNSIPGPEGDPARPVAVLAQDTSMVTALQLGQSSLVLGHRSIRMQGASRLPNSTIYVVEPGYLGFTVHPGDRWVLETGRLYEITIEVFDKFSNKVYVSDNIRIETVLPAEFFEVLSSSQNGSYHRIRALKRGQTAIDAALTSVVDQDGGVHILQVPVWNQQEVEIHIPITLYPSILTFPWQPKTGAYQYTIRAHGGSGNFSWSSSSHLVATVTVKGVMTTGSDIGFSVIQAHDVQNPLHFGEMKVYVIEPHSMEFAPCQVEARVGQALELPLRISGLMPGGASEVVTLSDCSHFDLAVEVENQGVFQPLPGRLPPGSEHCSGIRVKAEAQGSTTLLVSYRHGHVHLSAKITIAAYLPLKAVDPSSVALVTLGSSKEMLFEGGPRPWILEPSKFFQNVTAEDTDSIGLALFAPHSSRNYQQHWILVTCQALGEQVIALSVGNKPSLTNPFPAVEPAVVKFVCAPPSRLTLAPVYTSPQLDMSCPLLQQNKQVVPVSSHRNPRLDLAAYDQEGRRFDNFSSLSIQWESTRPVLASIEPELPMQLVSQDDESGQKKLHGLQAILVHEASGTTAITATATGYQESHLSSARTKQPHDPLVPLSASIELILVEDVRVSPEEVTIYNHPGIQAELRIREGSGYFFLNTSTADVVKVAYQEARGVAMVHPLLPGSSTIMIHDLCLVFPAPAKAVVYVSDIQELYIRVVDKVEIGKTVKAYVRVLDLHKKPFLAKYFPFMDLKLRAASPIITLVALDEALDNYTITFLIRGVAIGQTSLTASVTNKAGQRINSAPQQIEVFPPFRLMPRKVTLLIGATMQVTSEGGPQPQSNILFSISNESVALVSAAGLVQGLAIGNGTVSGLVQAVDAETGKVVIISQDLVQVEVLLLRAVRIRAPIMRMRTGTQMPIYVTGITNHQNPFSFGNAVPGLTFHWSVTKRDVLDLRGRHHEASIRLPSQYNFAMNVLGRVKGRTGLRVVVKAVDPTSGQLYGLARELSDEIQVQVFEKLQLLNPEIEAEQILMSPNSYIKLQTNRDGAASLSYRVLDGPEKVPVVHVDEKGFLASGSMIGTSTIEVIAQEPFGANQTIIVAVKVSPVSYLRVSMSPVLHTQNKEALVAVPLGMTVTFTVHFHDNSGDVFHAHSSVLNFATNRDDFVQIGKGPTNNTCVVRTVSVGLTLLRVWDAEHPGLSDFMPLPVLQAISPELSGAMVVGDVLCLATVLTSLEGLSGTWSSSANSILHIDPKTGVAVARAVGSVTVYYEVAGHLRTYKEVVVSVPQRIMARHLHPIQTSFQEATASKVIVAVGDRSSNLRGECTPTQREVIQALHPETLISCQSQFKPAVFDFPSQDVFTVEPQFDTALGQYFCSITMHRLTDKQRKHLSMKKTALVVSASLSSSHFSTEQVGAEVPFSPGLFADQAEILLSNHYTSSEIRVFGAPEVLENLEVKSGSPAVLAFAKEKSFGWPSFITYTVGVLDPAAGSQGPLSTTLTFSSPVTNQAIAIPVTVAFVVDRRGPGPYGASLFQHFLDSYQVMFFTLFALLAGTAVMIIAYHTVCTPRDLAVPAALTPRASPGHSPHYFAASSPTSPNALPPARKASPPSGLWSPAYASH
UniProt O75380, whole entry: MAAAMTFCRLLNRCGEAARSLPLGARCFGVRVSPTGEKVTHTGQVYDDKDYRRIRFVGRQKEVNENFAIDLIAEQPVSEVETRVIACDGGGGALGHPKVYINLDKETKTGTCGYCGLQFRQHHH
UniProt Q9BPW8: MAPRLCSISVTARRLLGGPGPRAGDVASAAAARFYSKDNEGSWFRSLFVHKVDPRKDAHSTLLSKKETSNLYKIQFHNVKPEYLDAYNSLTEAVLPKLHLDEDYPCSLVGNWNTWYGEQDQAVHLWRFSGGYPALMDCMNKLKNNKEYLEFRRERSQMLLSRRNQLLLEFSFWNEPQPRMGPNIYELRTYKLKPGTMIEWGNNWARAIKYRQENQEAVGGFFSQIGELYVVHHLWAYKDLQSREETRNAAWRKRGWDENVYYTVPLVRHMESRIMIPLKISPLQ
UniProt O95139, whole entry: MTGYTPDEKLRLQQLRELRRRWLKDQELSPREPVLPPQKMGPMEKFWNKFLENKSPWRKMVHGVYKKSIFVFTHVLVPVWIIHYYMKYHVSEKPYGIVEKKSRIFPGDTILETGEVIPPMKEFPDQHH
UniProt Q9BYT8, whole entry, looked up: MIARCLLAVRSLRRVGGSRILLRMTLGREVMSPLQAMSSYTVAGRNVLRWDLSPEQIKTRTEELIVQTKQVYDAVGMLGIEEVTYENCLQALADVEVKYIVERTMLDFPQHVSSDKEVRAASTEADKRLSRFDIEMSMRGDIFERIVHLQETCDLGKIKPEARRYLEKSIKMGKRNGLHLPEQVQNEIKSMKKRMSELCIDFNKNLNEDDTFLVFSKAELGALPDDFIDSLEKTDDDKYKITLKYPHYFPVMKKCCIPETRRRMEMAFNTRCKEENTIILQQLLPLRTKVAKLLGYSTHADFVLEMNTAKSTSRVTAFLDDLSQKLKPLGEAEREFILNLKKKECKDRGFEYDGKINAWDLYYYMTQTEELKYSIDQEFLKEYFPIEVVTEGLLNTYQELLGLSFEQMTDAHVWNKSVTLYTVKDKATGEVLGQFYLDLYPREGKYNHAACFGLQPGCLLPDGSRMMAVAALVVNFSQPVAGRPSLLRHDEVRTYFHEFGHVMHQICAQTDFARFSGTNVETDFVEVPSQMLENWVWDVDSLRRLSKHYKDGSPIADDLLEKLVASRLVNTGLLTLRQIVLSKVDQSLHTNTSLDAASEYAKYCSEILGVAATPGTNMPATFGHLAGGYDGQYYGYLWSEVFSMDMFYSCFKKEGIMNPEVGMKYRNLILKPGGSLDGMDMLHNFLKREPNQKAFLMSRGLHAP
UniProt Q8NFH5: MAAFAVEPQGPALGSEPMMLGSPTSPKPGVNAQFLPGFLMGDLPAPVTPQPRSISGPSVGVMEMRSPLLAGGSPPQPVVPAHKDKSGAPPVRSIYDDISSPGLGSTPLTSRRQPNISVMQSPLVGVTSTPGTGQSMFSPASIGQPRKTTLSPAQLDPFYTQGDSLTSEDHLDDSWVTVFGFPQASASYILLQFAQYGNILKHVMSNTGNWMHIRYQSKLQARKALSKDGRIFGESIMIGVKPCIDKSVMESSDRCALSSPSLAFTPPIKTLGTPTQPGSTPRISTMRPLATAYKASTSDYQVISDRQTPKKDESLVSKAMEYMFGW
UniProt Q9Y6M9, whole entry: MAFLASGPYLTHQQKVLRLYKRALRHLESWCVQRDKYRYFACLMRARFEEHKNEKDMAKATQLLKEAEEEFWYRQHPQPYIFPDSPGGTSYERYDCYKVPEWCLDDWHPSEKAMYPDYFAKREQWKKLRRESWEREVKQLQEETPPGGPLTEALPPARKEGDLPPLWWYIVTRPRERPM
UniProt P13056: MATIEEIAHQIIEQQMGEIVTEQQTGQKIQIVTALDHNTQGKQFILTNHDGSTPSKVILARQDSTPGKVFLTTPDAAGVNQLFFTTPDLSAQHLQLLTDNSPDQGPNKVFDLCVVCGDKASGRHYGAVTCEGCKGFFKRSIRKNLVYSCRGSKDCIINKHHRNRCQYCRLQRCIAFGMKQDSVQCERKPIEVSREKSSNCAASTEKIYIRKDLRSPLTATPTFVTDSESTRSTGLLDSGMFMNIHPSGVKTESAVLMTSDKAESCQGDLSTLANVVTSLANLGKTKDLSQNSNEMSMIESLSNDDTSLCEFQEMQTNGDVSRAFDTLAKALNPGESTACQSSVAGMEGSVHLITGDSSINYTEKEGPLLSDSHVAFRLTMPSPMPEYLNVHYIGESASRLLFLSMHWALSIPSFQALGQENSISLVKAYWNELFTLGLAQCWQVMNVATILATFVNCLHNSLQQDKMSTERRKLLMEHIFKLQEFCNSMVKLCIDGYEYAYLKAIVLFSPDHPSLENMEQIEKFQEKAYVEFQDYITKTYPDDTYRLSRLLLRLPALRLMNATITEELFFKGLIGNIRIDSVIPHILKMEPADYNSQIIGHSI
UniProt Q96Q05, whole entry: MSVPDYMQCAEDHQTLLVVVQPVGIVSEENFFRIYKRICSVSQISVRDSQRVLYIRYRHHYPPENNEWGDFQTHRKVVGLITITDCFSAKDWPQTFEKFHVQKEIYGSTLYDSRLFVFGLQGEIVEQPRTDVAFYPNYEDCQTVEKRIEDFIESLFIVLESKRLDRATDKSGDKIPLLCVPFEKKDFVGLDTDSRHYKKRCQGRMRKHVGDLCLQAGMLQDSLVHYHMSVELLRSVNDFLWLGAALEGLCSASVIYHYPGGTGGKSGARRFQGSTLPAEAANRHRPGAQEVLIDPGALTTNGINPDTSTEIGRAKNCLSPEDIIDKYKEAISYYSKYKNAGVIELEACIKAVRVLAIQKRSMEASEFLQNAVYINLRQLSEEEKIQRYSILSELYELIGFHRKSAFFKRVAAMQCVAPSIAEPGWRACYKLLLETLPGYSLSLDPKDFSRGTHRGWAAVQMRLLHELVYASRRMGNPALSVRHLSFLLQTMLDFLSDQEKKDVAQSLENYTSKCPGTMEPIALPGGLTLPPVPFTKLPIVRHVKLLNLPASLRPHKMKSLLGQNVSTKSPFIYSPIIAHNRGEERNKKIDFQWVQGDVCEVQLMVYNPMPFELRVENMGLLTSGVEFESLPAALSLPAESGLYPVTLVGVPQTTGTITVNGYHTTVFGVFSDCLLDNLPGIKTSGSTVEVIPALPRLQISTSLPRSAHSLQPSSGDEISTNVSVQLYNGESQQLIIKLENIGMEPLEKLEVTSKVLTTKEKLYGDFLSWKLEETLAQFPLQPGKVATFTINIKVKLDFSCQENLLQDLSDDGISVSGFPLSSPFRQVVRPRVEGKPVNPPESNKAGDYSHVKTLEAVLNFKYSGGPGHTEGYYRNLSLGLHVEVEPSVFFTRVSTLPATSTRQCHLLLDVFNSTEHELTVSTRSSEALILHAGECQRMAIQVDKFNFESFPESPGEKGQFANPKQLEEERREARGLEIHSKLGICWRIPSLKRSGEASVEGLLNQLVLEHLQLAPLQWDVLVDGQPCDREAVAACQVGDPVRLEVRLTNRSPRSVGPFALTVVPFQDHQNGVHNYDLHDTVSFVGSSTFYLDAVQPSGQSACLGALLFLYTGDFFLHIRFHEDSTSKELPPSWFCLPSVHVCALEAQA
UniProt Q5TFE4: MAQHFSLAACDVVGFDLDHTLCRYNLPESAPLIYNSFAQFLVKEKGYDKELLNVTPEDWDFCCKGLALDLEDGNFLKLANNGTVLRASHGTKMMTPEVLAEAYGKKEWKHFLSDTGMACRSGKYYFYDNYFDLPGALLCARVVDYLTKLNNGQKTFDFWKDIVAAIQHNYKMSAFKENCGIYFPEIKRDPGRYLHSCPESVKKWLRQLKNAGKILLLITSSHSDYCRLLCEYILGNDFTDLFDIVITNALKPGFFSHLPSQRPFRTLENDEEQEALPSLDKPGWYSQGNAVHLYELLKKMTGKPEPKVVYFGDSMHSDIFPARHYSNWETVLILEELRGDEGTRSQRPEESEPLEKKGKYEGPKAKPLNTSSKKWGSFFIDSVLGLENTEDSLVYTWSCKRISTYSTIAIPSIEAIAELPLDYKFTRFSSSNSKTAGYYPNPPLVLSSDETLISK
UniProt P56556, whole entry: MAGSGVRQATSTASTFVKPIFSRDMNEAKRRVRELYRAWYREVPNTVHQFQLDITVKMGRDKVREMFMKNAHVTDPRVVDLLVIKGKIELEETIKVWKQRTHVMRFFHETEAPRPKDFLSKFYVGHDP
UniProt Q9NYR9: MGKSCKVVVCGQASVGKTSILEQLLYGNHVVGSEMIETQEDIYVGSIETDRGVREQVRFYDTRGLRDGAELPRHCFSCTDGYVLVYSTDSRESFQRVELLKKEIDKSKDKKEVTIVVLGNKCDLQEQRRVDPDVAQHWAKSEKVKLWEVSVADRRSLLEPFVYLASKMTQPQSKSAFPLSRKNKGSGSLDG

This is one part of the list.

Compound in this experiment: COc1ccc(Cn2ccc3cc(C)c(C(=O)NO)cc32)cc1
As to the kind of experiment: dose-dependent thermal stabilisation call (2D-TPP, DLPTP, 10% FDR) (binary (1 = stabilised)); higher = stabilised by the compound. The settings on record: system: HL-60 intact cells; concentration range 0.04-10 µM. As for the experimental part:
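2D thermal proteome profiling in intact HL-60 cells treated with BRD-3811 (0, 0.04, 0.29, 2, 10 uM) for 90 min at 37 C, then heated 3 min at one of 12 temperatures (42-63.9 C). Soluble protein was quantified by TMT10 MS. The value is the DLPTP call of the paper: dose-dependent thermal stabilisation over all temperatures at 10% FDR (F-test of a dose-response against a flat model); one experiment, one call per tested protein.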
As for NCK2 (UniProt O43639), the “dose-dependent thermal stabilisation call” value is inactive: 0.

As to NUP210 (UniProt Q8TEM1), the “dose-dependent thermal stabilisation call” value is inactive: 0.

With NDUFS6 (UniProt O75380), the “dose-dependent thermal stabilisation call” value was inactive: 0.

Consider NDUFV3 (UniProt P56181), for which the “dose-dependent thermal stabilisation call” value was inactive: 0.

NFATC3 (UniProt Q12968): the “dose-dependent thermal stabilisation call” value is inactive: 0.

In the case of NIPSNAP1 (UniProt Q9BPW8), the “dose-dependent thermal stabilisation call” value was inactive: 0.

As for NARS (UniProt O43776), the “dose-dependent thermal stabilisation call” value was inactive: 0.

Consider NDUFB7 (UniProt P17568), for which the “dose-dependent thermal stabilisation call” value was inactive: 0.

Turning to NUDCD2 (UniProt Q8WVJ2), the “dose-dependent thermal stabilisation call” value is inactive: 0.

For the target NEDD4 (UniProt P46934), the “dose-dependent thermal stabilisation call” value was inactive: 0.

For the target NDUFB6 (UniProt O95139), the “dose-dependent thermal stabilisation call” value is inactive: 0.

NLN (UniProt Q9BYT8): the “dose-dependent thermal stabilisation call” value was active: 1.

With NARG1L (UniProt Q6N069), the “dose-dependent thermal stabilisation call” value is inactive: 0.

In the case of NISCH (UniProt Q9Y2I1), the “dose-dependent thermal stabilisation call” value is inactive: 0.

As for NDUFA2 (UniProt O43678), the “dose-dependent thermal stabilisation call” value was inactive: 0.

For the target NT5C3 (UniProt Q9H0P0), the “dose-dependent thermal stabilisation call” value was inactive: 0.

For NAP1L1 (UniProt P55209), the “dose-dependent thermal stabilisation call” value is inactive: 0.

As to NOTCH1 (UniProt P46531), the “dose-dependent thermal stabilisation call” value was inactive: 0.

For the target NRF1 (UniProt Q16656), the “dose-dependent thermal stabilisation call” value is inactive: 0.

Turning to NUP35 (UniProt Q8NFH5), the “dose-dependent thermal stabilisation call” value is inactive: 0.

As for NDUFB9 (UniProt Q9Y6M9), the “dose-dependent thermal stabilisation call” value is inactive: 0.

For the target NCOA5 (UniProt Q9HCD5), the “dose-dependent thermal stabilisation call” value was inactive: 0.

For the target NR2C1 (UniProt P13056), the “dose-dependent thermal stabilisation call” value was inactive: 0.

On to NDUFA10 (UniProt O95299), for which the “dose-dependent thermal stabilisation call” value is inactive: 0.

For NDFIP1 (UniProt Q9BT67), the “dose-dependent thermal stabilisation call” value is inactive: 0.

For the target NUDT1 (UniProt P36639), the “dose-dependent thermal stabilisation call” value is inactive: 0.

In the case of NUP98 (UniProt P52948), the “dose-dependent thermal stabilisation call” value was inactive: 0.

For the target NIBP (UniProt Q96Q05), the “dose-dependent thermal stabilisation call” value is inactive: 0.

In the case of NT5DC1 (UniProt Q5TFE4), the “dose-dependent thermal stabilisation call” value was active: 1.

On to NDUFA6 (UniProt P56556), for which the “dose-dependent thermal stabilisation call” value is inactive: 0.

Take NDUFA9 (UniProt Q16795): the “dose-dependent thermal stabilisation call” value is inactive: 0.

For NKIRAS2 (UniProt Q9NYR9), the “dose-dependent thermal stabilisation call” value is inactive: 0.

With NOP2 (UniProt P46087), the “dose-dependent thermal stabilisation call” value was inactive: 0.

Consider NCKAP1L (UniProt P55160), for which the “dose-dependent thermal stabilisation call” value is inactive: 0.

As for NT5C (UniProt Q8TCD5), the “dose-dependent thermal stabilisation call” value is inactive: 0.

NCF4 (UniProt Q15080): the “dose-dependent thermal stabilisation call” value was inactive: 0.
